The record followed here is article PMC7819943, “Rice protein-binding microarrays: a tool to detect cis-acting elements near promoter regions in rice”.

Sequences of proteins named here, by UniProt entry; tags and fusion partners are left off.
UniProt Q0JBA9, entry or part of it: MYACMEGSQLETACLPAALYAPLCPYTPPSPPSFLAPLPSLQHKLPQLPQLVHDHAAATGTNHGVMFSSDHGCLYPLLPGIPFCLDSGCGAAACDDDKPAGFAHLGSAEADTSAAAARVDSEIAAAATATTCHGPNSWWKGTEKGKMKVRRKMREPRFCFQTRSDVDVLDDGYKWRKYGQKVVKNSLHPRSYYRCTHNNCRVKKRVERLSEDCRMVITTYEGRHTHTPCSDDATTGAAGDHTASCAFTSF

Some of the results follow.

The target in this test is OsWRKY34 (Oryza sativa, UniProt Q0JBA9 1-250). The test is described as follows: protein-binding microarray (RPBM); PBS, 2% BSA, 51.3 ng/ul salmon testes DNA, 50 uM zinc acetate, 200 nM TF, 25 C, 1 h; high values mean tight binding. To be noted: protein: recombinant; tags: N-terminal polyhistidine and DsRed monomer fusion (pET32a); label: CyDye5-dUTP incorporated in the synthesized complementary strand; 3' TTTTT single-stranded linker to array surface; dsDNA, one strand shown. The essentials:
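The binding signal for each feature is its fluorescence intensity in arbitrary units. An Axon 4000B scanner was used to read a custom Agilent array that had been made double-stranded with Cy5-dUTP primer extension, blocked with 2% BSA, incubated at 25 °C for 1 h with 200 nM protein in PBS, 2% BSA, salmon testes DNA and 50 µM zinc acetate, and washed. The protein was an N-terminal polyhistidine–DsRed transcription factor fusion from E. coli BL21-CodonPlus, purified on Ni–NTA.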
“TAGCAACATCTTATCAAGTTATTCTTGCCATACTCTCTCCCGGAGTCACCTAGTGCAG”: the binding signal is 9030 fluorescence intensity (a.u.).

Take “TTCTGGTCCTGAACTCCGCCGTATTACTTCTGATCATCTCCGGAGTCACCTAGTGCAG”: the binding signal was 10300 fluorescence intensity (a.u.).

Consider “TTCTTTTCAGTGGTTGGGTTTGGACGATTAGCCAAATGTACGGAGTCACCTAGTGCAG”, for which the binding signal was 8620 fluorescence intensity (a.u.).

Regarding “CCCACTCCACCACTGGCCCCTACAGCGTCATTGCAAGAATCGGAGTCACCTAGTGCAG”, the binding signal is 8310 fluorescence intensity (a.u.).

On to “CCACGCGTCCCTCGACCGCACCGCCTCCTAGCCGCCGTCGCGGAGTCACCTAGTGCAG”, for which the binding signal is 9070 fluorescence intensity (a.u.).

For “TCATTTATTCACATGTCTTTTCATTTTGCAACCAAATTTACGGAGTCACCTAGTGCAG”, the binding signal is 11600 fluorescence intensity (a.u.).

As to “CTCTCTCACACACACTCCCTCTATATATATTTGTGCGCGCCGGAGTCACCTAGTGCAG”, the binding signal was 12700 fluorescence intensity (a.u.).

For the sequence “CTGTATTCATTAGGGTGGGACTGTATACTATAGTTATTATCGGAGTCACCTAGTGCAG”, the binding signal was 15700 fluorescence intensity (a.u.).

As to “ACTACATACGGAGTACATGTCAAATCCTCTGCGCAAAATCCGGAGTCACCTAGTGCAG”, the binding signal is 8360 fluorescence intensity (a.u.).

For “AGAAAAACATCATCTTTGGCCACTACCTGCATCTCCACGTCGGAGTCACCTAGTGCAG”, the binding signal was 9000 fluorescence intensity (a.u.).

On to “ATGGCGAAAATGGGAGTGGGGAGGAGAAAGGTGGTGGGGCCGGAGTCACCTAGTGCAG”, for which the binding signal is 8490 fluorescence intensity (a.u.).

Turning to “ACTCCACTCCACCGCCGCCGCCTATATAACCCACCTCCACCGGAGTCACCTAGTGCAG”, the binding signal was 10100 fluorescence intensity (a.u.).

As to “CCACTCACCCCTAACCCTAGCCGCTGTCGCCCGCCTCCCCCGGAGTCACCTAGTGCAG”, the binding signal is 8660 fluorescence intensity (a.u.).

As to “TGTTCGCACCGCTACTGATGTCCAGCTTCCAGCCGCTCACCGGAGTCACCTAGTGCAG”, the binding signal is 8620 fluorescence intensity (a.u.).

For “TAGGGGTATTTAGATTTTTTTTATGATTTATTAACTAGTACGGAGTCACCTAGTGCAG”, the binding signal is 9820 fluorescence intensity (a.u.).

On to “CATGTCGCATGATCTTTTTCGCCCCTACACCATCAACAACCGGAGTCACCTAGTGCAG”, for which the binding signal was 10200 fluorescence intensity (a.u.).

Turning to “AAATAGTTCACAAAGTTCAGTCATTAGTTGGGTTTCTAGTCGGAGTCACCTAGTGCAG”, the binding signal is 9060 fluorescence intensity (a.u.).

As for “CAACCGCTTCGTTCTCCGTTGGTGTATAGTTGCCGCAGCACGGAGTCACCTAGTGCAG”, the binding signal is 8530 fluorescence intensity (a.u.).

For the sequence “TCTCTCGGTCTCCACCGGAATTTCCCCGAAATACCCTTGCCGGAGTCACCTAGTGCAG”, the binding signal was 8280 fluorescence intensity (a.u.).

Consider “ACGACGGTTGTCTGTCTGTCTGTCTGTCATGTTTTGTAGTCGGAGTCACCTAGTGCAG”, for which the binding signal is 8260 fluorescence intensity (a.u.).

Turning to “CATATGGGCACGCGGTAGCTGAATTGTAGTTTCATCCATCCGGAGTCACCTAGTGCAG”, the binding signal was 8060 fluorescence intensity (a.u.).

For the sequence “TTCCCGCCTACATTTTCGCCACGTCAGCGATCCGCACCGACGGAGTCACCTAGTGCAG”, the binding signal was 8550 fluorescence intensity (a.u.).

Turning to “AAATACTCCATATTTATTTGTTTCTGACTTTTCAGTGCATCGGAGTCACCTAGTGCAG”, the binding signal is 9010 fluorescence intensity (a.u.).

For the sequence “ACGCTGGCGCCGCTCGCGCCACCGCACCCGCACCGCCATGCGGAGTCACCTAGTGCAG”, the binding signal was 8700 fluorescence intensity (a.u.).

Turning to “GGCTCTAAAGACACTCATTCCTACAGTGCAAGTATCCTATCGGAGTCACCTAGTGCAG”, the binding signal was 8700 fluorescence intensity (a.u.).

On to “CCACCGTTTCCACCCAGATTCGCGCCCGCCACTTCCGACTCGGAGTCACCTAGTGCAG”, for which the binding signal is 12500 fluorescence intensity (a.u.).

Turning to “CTCCTTGACTAATGTTGCGTTCTCTAATCTCCCTCTGACTCGGAGTCACCTAGTGCAG”, the binding signal was 9450 fluorescence intensity (a.u.).

As to “ACACTCTCCGACGATATTTTCCTTCTCTGTTTTTTTTTTCCGGAGTCACCTAGTGCAG”, the binding signal is 16200 fluorescence intensity (a.u.).

On to “AGCGTTGACCATACTTAAATCACAGTTTTCTTTTCTTTTTCGGAGTCACCTAGTGCAG”, for which the binding signal is 21800 fluorescence intensity (a.u.).

Consider “AGACACATCTAGCAGGCAAACCATCACTTTACCCAGTAATCGGAGTCACCTAGTGCAG”, for which the binding signal was 8050 fluorescence intensity (a.u.).

For “CTATCTACTACTGCTCGAGCTCAACCAGCATTTCCAGCTTCGGAGTCACCTAGTGCAG”, the binding signal was 9750 fluorescence intensity (a.u.).

Consider “TGTTTGACCGTTCGTCTTATTAAAATTTTTTTGTGAAATACGGAGTCACCTAGTGCAG”, for which the binding signal was 8610 fluorescence intensity (a.u.).

For “GGTGCTGCCACAGCTCATCTACCAGGTCTACACATTTACCCGGAGTCACCTAGTGCAG”, the binding signal is 8310 fluorescence intensity (a.u.).

Take “ACTTTGTCCACCCATTTTGTGTTGTCTCGTTGTTTCTATTCGGAGTCACCTAGTGCAG”: the binding signal was 17000 fluorescence intensity (a.u.).

For “ACCGATGACGCCGTCCGCCACCTGCTTAAACCCGCGGCCTCGGAGTCACCTAGTGCAG”, the binding signal is 8390 fluorescence intensity (a.u.).

For the sequence “GACCACCCACCGGGCCCGCGTGCGCCGCGACACACGGCGCCGGAGTCACCTAGTGCAG”, the binding signal was 9420 fluorescence intensity (a.u.).

Turning to “CCACCCGCTGCTCTACTCGCACCAGGTAACCTATCACTGACGGAGTCACCTAGTGCAG”, the binding signal was 8710 fluorescence intensity (a.u.).

As for “GGCCTAACCTATGTAGCCCGTTCGTTCCAGCCCAACAATACGGAGTCACCTAGTGCAG”, the binding signal is 8940 fluorescence intensity (a.u.).

Regarding “GCCACGAATCGTTTCACCTCACTTCCCACCACCTCTCGCCCGGAGTCACCTAGTGCAG”, the binding signal was 14900 fluorescence intensity (a.u.).

On to “TGCTAGGGTTTTCGGGAGGCGGGTCTAGGGTTGAGGCAAACGGAGTCACCTAGTGCAG”, for which the binding signal is 12300 fluorescence intensity (a.u.).

With “TAGCCTTTCAACCAGCGTCGTGCTTGGTTTTGTTATTCACCGGAGTCACCTAGTGCAG”, the binding signal was 8980 fluorescence intensity (a.u.).

For the sequence “AGGTGACGTTTCACTTGGATTTGCATGACTTTAGAGATTACGGAGTCACCTAGTGCAG”, the binding signal was 8340 fluorescence intensity (a.u.).
